For at least one entry, the source does not settle the construct or the ends of the probe. Results from cells or extracts need not show a direct contact. Protein sequences can lack the tags named with them.

For data set [1], the target named is T1, NRF-1 (nuclear respiratory factor 1, endogenous) (UniProt Q16656).
T1 sequence (looked up, limits assumed): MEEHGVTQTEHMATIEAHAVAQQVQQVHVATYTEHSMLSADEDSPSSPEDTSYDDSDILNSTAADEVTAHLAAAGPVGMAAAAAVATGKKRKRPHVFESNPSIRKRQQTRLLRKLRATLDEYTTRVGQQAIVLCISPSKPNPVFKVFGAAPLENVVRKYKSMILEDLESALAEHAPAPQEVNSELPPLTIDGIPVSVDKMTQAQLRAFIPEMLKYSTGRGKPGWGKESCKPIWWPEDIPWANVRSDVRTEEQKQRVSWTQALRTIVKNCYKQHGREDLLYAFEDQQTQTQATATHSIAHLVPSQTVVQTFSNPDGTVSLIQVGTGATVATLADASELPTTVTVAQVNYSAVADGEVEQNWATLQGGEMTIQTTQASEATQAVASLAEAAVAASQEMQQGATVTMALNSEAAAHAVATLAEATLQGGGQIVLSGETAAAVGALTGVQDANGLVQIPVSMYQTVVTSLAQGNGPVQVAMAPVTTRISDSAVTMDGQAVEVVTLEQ
Kind of data set: EMSA. To be noted: HBZ-deltaCD overexpressed (does not bind NRF-1), no inhibition; DIG Gel Shift kit 2nd generation (Roche), manufacturer's instructions; HEK293T nuclear extracts; 250-fold unlabeled oligo for competition; protein in an extract; label: DIG (DIG Gel Shift kit).

For data set [2], the target named is T1, NRF-1 (nuclear respiratory factor 1, endogenous). Kind of data set: EMSA supershift. To be noted: HEK293T nuclear extract, anti-NRF-1 supershift; DIG Gel Shift kit 2nd generation (Roche), manufacturer's instructions; HEK293T nuclear extracts; 250-fold unlabeled oligo for competition; protein in an extract; label: DIG (DIG Gel Shift kit). On the technique in general: A gel shift assay detects complexes by their altered migration in electrophoresis.

Regarding “ACTGCGCGCATGCGCGGCGG (double strand) [TDP1 promoter NRF-1 site EMSA probe]”, the binding result in data set [1] and in data set [2] was “binds” in each case.

Values taken from publication PMC5634466.
